Measurements as given in PubChem BioAssay AID445 (National Center for Advancing Translational Sciences (NCATS), 2006).
This is one part of the list. The main result of the screen is listed elsewhere. These columns were measured beside it and carry no call. The list favours compounds with an active or inconclusive main result. Potencies come from curve fits of mixed quality, noted in brackets.

Assay: IkB Signaling
Details: ABC-DLBCL IkBa-CBG/CBR dual luciferase ratio (green luciferase fused to IkBa over red control in OCI-Ly3 lymphoma cells), 4 h
Procedure, shortened: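 In this assay, an IκBα–CBG68 fusion accumulates when IKK-driven degradation is blocked; native CBR normalizes for cell number. OCI-Ly3 cells were treated 4 h with compound and doxycycline, then green and red light read after Chroma-Glo addition.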

[1] = measured here: control luc red channel unless noted

**Q.** Which AC50 [1] does the source give for `Cc1ccc(CNC(=O)c2c[nH]n3c(=O)c(Cc4ccc(Cl)cc4)c(C)nc23)cc1` here?
**A.** The AC50 was 12.6 µM [falling, partial curve].

**Q.** With `CCC1SC(=NC(=O)c2ccc(Cl)c(Cl)c2)NC1=O` (centres undefined) as the molecule, how does the AC50 [1] read?
**A.** Its AC50 is 10 µM [falling, partial curve].

**Q.** Which AC50 [1] does the source give for `CCc1ccc(S(=O)(=O)c2cn(Cc3ccccc3F)c3cc(OC)c(OC)cc3c2=O)cc1` here?
**A.** Its AC50 is 15.8 µM [falling, partial curve].

**Q.** Which AC50 [1] does the source give for `COc1ccc(NC(=O)CSc2nnc(NC(=O)NC3CCCCC3)s2)cc1OC` here?
**A.** Its AC50 is 15.8 µM [falling, partial curve].

**Q.** For `Cc1ccc(CCNC(=O)c2c3c(nc4ccccc24)C(=O)N(C2CCCCC2)C3)cc1`, which AC50 [1] is on record?
**A.** Its AC50 is 39.8 µM [falling, partial curve].

**Q.** For `O=C(OC[C@@H](O)CO)c1ccccc1Nc1ccnc2cc(Cl)ccc12`, which AC50 [1] is on record?
**A.** Its AC50 is 3.16 µM [rising, full curve].

**Q.** With `O=C(Nc1ccc2oc(-c3ccncc3)nc2c1)c1ccccc1Cl` as the molecule, how does the AC50 [1] read?
**A.** The AC50 was 12.6 µM [falling, partial curve].

**Q.** With `CCCCS(=O)(=O)/C=C\C=C/S(=O)(=O)CCCC` as the molecule, how does the AC50 [1] read?
**A.** The AC50 was 3.98 µM [falling, full curve].

**Q.** Which AC50 [1] does the source give for `COc1cccc(NC(=O)c2ccc(-c3nc(COc4ccccc4)c(C)o3)cc2)c1` here?
**A.** Its AC50 is 15.8 µM [rising, partial curve, poor fit].

**Q.** With `O=C(OCc1cc(=O)n2nc(C3CCCCC3)sc2n1)c1ccc(F)cc1` as the molecule, how does the AC50 [1] read?
**A.** Its AC50 is 1 µM [rising, full curve].

**Q.** Which AC50 [1] does the source give for `CCOc1ccc(-n2cc(-c3ccccc3)c3c(N4CCN(c5ccccc5OC)CC4)ncnc32)cc1` here?
**A.** The AC50 was 25.1 µM [falling, partial curve].

**Q.** With `O=c1cc(-c2ccc(O)c(O)c2)oc2cc(O)cc(O)c12` as the molecule, how does the AC50 [1] read?
**A.** The AC50 was 12.6 µM [falling, partial curve].

**Q.** For `CCCCN(CC)C(=O)CSc1c2c(nc3ccc(Cl)cc13)CCCC2`, which AC50 [1] is on record?
**A.** Its AC50 is 12.6 µM [falling, partial curve].

**Q.** Which AC50 [1] does the source give for `CCn1c(CN2CCC(C)CC2)nc2cc(NC(=O)COc3ccc(Cl)c(C)c3)ccc21` here?
**A.** Its AC50 is 2 µM [falling, full curve].

**Q.** Which AC50 [1] does the source give for `COc1cc(OC)c(NC(=O)CCc2c(C)nc3ncnn3c2C)cc1Cl` here?
**A.** The AC50 was 12.6 µM [falling, partial curve].

**Q.** For `CCc1ccc(-n2c(SCc3ccccc3Cl)nc3[nH]ncc3c2=O)cc1`, which AC50 [1] is on record?
**A.** Its AC50 is 39.8 µM [falling, single point].

**Q.** Which AC50 [1] does the source give for `COc1cccc(N2CCN(C(=O)c3cc4cc5cc(C)ccc5nc4s3)CC2)c1` here?
**A.** The AC50 was 39.8 µM [rising, single point].

**Q.** For `Cc1cccc(NC(=O)Cn2cc(C(=O)c3ccco3)c3ccccc32)c1`, which AC50 [1] is on record?
**A.** The AC50 was 20 µM [falling, single point].

**Q.** With `COc1ccc(-c2oc3ncn(CCN4CCOCC4)c(=N)c3c2-c2ccc(OC)cc2)cc1` as the molecule, how does the AC50 [1] read?
**A.** The AC50 was 20 µM [falling, partial curve].

**Q.** For `O=C1CN(Cc2ccccc2)C(=NCc2ccco2)S1`, which AC50 [1] is on record?
**A.** The AC50 was 2.51 µM [rising, full curve] [measured here: IkB-luc green channel].

**Q.** With `COc1ccc(Cn2cc(S(=O)(=O)c3ccc(Cl)cc3)c(=O)c3cc4c(cc32)OCO4)cc1` as the molecule, how does the AC50 [1] read?
**A.** Its AC50 is 12.6 µM [falling, partial curve].

**Q.** With `O=C(NC1(C(F)(F)F)C(=O)Nc2c1c(=O)[nH]c(=O)n2-c1ccc(Cl)cc1)c1ccccc1F` (centres undefined) as the molecule, how does the AC50 [1] read?
**A.** Its AC50 is 0.0316 µM [falling, full curve].

**Q.** With `Cc1cccc(OCC(=O)Nc2ccc(-c3nc4ccccc4o3)cc2)c1C` as the molecule, how does the AC50 [1] read?
**A.** Its AC50 is 15.8 µM [falling, partial curve].

**Q.** For `CCn1c(=N)n(CCOc2ccc(Br)cc2)c2ccccc21`, which AC50 [1] is on record?
**A.** Its AC50 is 39.8 µM [falling, single point].

**Q.** Which AC50 [1] does the source give for `COc1ccc(CC(=O)NCCc2csc(-c3cccc(C)c3)n2)cc1` here?
**A.** Its AC50 is 39.8 µM [falling, single point].

**Q.** Which AC50 [1] does the source give for `CC(=O)c1cccc(NC(=O)CC(c2ccc(C)cc2)N2Cc3ccccc3C2=O)c1` (centres undefined) here?
**A.** Its AC50 is 39.8 µM [falling, single point].

**Q.** For `COc1cc(S(=O)(=O)n2nnc3ccccc32)c(OC)cc1Cl`, which AC50 [1] is on record?
**A.** Its AC50 is 12.6 µM [falling, partial curve].

**Q.** With `CCN(C(=O)Nc1cn(CC(C)C)c(=O)c2ccccc12)c1cc(C)ccc1C` as the molecule, how does the AC50 [1] read?
**A.** The AC50 was 31.6 µM [falling, partial curve].

**Q.** Which AC50 [1] does the source give for `COc1ccccc1CN1C(=O)CN(C2CCCCCC2)C(=O)C1c1ccc(F)cc1` (centres undefined) here?
**A.** Its AC50 is 39.8 µM [falling, single point].

**Q.** With `Cc1ccc2nc(Nc3ccc(C)c(F)c3)c3nncn3c2c1` as the molecule, how does the AC50 [1] read?
**A.** The AC50 was 3.98 µM [rising, partial curve].

**Q.** With `c1ccc(OCc2nc3ccccc3s2)cc1` as the molecule, how does the AC50 [1] read?
**A.** Its AC50 is 12.6 µM [falling, partial curve].

**Q.** Which AC50 [1] does the source give for `COc1ccc2cc(C(=O)NCc3ccc4c(c3)CCN4C(=O)c3ccc(F)cc3)[nH]c2c1` here?
**A.** The AC50 was 10 µM [falling, partial curve].

**Q.** With `COc1cc(C)cc2oc(=O)c(CC(=O)NCCc3ccc(Cl)cc3)c(C)c12` as the molecule, how does the AC50 [1] read?
**A.** The AC50 was 39.8 µM [rising, single point] [measured here: IkB-luc green channel].

**Q.** Which AC50 [1] does the source give for `Fc1cccc(-c2nnn3c2nc(NCCc2ccccc2)c2ccccc23)c1` here?
**A.** The AC50 was 0.2 µM [falling, full curve].

**Q.** Which AC50 [1] does the source give for `N#CCSc1nc(Nc2ccc3c(c2)OCO3)c2ccccc2n1` here?
**A.** The AC50 was 6.31 µM [falling, partial curve].

**Q.** Which AC50 [1] does the source give for `CCCCN(C)CC(O)Cn1cc(/C=C/C(=O)c2ccc(OC)c(OC)c2)c2ccccc21` (centres undefined) here?
**A.** Its AC50 is 25.1 µM [falling, partial curve].

**Q.** With `Cc1ccc(-c2nc(S(=O)(=O)c3ccc(Cl)cc3)c(N3CCCCC3)o2)cc1` as the molecule, how does the AC50 [1] read?
**A.** Its AC50 is 12.6 µM [falling, partial curve, poor fit].

**Q.** Which AC50 [1] does the source give for `COc1ccc(CNC(=O)Cn2nnc(-c3ccccc3F)n2)cc1` here?
**A.** Its AC50 is 20 µM [falling, single point].

**Q.** With `COc1ccc(Cl)cc1C(=O)Nc1ccc2oc(-c3ccc(C(C)(C)C)cc3)nc2c1` as the molecule, how does the AC50 [1] read?
**A.** Its AC50 is 25.1 µM [falling, single point].

**Q.** Which AC50 [1] does the source give for `CCn1c(N)c(C(=O)NC2CCCCC2)sc1=S` here?
**A.** Its AC50 is 15.8 µM [falling, partial curve].

**Q.** With `CCCSC1=NC2(CCN(C(=O)NC3CCCCC3)CC2)N=C1c1ccccc1` as the molecule, how does the AC50 [1] read?
**A.** Its AC50 is 20 µM [falling, single point].

**Q.** For `Cc1cc2n(n1)CCCN2C(=O)Nc1ccc(Cl)cc1`, which AC50 [1] is on record?
**A.** Its AC50 is 0.631 µM [rising, single point].

**Q.** With `Cc1c(C(=O)OCC(C)C)[nH]c2c1C(=O)CC(c1ccco1)C2` (centres undefined) as the molecule, how does the AC50 (measured here: IkB-luc green channel) read?
**A.** Its AC50 is 0.794 µM [rising, full curve].

**Q.** What about the AC50 (measured here: control luc red channel) of the same molecule?
**A.** The AC50 was 0.158 µM [rising, full curve, poor fit].

**Q.** For `Fc1cccc(Cl)c1CNc1n[nH]c(-c2ccco2)n1`, which AC50 [1] is on record?
**A.** The AC50 was 20 µM [falling, single point].

**Q.** Which AC50 [1] does the source give for `Cc1ccc(Cl)cc1N1CCN(C(=O)c2cccn2-c2nnc(N3CCCCC3)s2)CC1` here?
**A.** The AC50 was 31.6 µM [falling, partial curve].

**Q.** With `O=C(Nc1c(C(=O)O)oc2ccc(Br)cc12)c1ccccc1` as the molecule, how does the AC50 [1] read?
**A.** Its AC50 is 0.794 µM [falling, full curve, poor fit].

**Q.** With `CC(=O)Nc1ccc(S(=O)(=O)N2CCSC2c2ccccc2Cl)cc1` (centres undefined) as the molecule, how does the AC50 [1] read?
**A.** The AC50 was 12.6 µM [falling, partial curve].

**Q.** Which AC50 [1] does the source give for `COc1ccc(N2CCN(c3nc(NCCc4ccc(OC)c(OC)c4)nc(OC)n3)CC2)cc1` here?
**A.** The AC50 was 3.16 µM [falling, full curve].

**Q.** For `Cc1c(-c2ccccc2)c(=O)oc2c(CN3CCN(C)CC3)c(O)ccc12`, which AC50 [1] is on record?
**A.** The AC50 was 0.316 µM [rising, full curve].

**Q.** With `COc1ccc(NC(=O)Cc2csc(COc3cccc(C)c3)n2)cc1OC` as the molecule, how does the AC50 [1] read?
**A.** Its AC50 is 15.8 µM [falling, partial curve].

**Q.** For `Cc1ccc(C)c(S(=O)(=O)c2nnn3c2nc(NCc2cccs2)c2sccc23)c1`, which AC50 [1] is on record?
**A.** Its AC50 is 7.94 µM [falling, full curve].

**Q.** With `Cc1ccc(NC(=O)CN(C)S(=O)(=O)c2ccc3c(c2)CCC(=O)N3)c(C)c1` as the molecule, how does the AC50 [1] read?
**A.** The AC50 was 3.98 µM [falling, full curve].

**Q.** For `Cc1ccc(CN2CCCn3nc(C(=O)NCc4ccccc4Cl)cc3C2=O)cc1`, which AC50 [1] is on record?
**A.** Its AC50 is 15.8 µM [falling, partial curve].

**Q.** Which AC50 [1] does the source give for `COc1ccccc1-c1noc(-c2ccc(N(C)Cc3ccccc3)c([N+](=O)[O-])c2)n1` here?
**A.** Its AC50 is 10 µM [falling, partial curve].

**Q.** For `CCCCN(CC)C(=O)CCn1c(=O)c2cccn2c2cccnc21`, which AC50 [1] is on record?
**A.** Its AC50 is 25.1 µM [falling, single point].

**Q.** Which AC50 [1] does the source give for `COc1ccccc1C(=O)c1c(N)c(-c2nc(-c3ccccc3)cs2)c2ccccn12` here?
**A.** The AC50 was 2.51 µM [falling, full curve].

**Q.** Which AC50 [1] does the source give for `CCOc1ccccc1C(=O)Nc1ccc2nc(N3CCN(c4ncccn4)CC3)cc(C)c2c1` here?
**A.** The AC50 was 1 µM [falling, full curve, poor fit].

**Q.** Which AC50 [1] does the source give for `CCCCNC(=O)CN1C(=O)CSc2ccc(S(=O)(=O)N3CCC(C)CC3)cc21` here?
**A.** The AC50 was 31.6 µM [falling, single point].

**Q.** For `COc1cccc(NC(=O)CN(Cc2ccccc2)S(=O)(=O)c2ccc3nc(C)sc3c2)c1`, which AC50 [1] is on record?
**A.** Its AC50 is 20 µM [falling, partial curve].

**Q.** With `CC1Cc2ccccc2N1C(=O)CSc1nc2ccccc2o1` (centres undefined) as the molecule, how does the AC50 [1] read?
**A.** The AC50 was 12.6 µM [falling, partial curve].

**Q.** With `O=C(NCc1ccco1)c1nn(-c2ccccc2)c(=O)c2ccccc12` as the molecule, how does the AC50 [1] read?
**A.** Its AC50 is 25.1 µM [falling, partial curve].

**Q.** For `Cc1nn(CCCC(=O)NCc2cccc(F)c2)c(=O)c2nn(-c3ccccc3)c(C)c12`, which AC50 [1] is on record?
**A.** The AC50 was 7.94 µM [falling, partial curve].

**Q.** Which AC50 [1] does the source give for `CCOC(=O)c1c(S(=O)(=O)NCC(=O)Nc2ccc(Cl)c(C(F)(F)F)c2)c(C)n(C)c1C` here?
**A.** The AC50 was 3.16 µM [falling, single point].
